Assay results from patent US20230121313A1 (priority 2019, published 2023).

Conditions: sodium heparin human plasma, 25 μL sample
Procedure: This example provides an LC-MS/MS method for the determination of ketamine and norketamine in sodium heparin human plasma using ketamine-d4 and norketamine-d4 as the respective internal standards (IS).
Retention time and peak area were determined by Analyst® Data Acquisition/Processing Software (Version 1.4.2). Analyte concentrations were obtained from a calibration curve constructed by plotting the peak area ratio versus the concentration using Watson LIMS (Version 7.3). Watson LIMS and Microsoft Office Excel were used for statistical calculations. When Office Excel was used the calculations were 100% audited. Concentrations were calculated using linear regression according to the following equation: […]
Selectivity is defined as the ability of a chromatographic method to measure a response from the analyte without interference from the biological matrix. This was accomplished by evaluating six individual lots of human plasma prepared as blank and at the lower limit of quantitation (LLOQ, 0.500 ng/mL).
The matrix effect is defined as the suppression or enhancement of ionization of analytes by the presence of matrix components in the biological samples. See, e.g., C. T. Viswanathan, “Quantitative Bioanalytical Methods Validation and Implementation: Best Practices for Chromatographic and Ligand Binding Assays,” Pharmaceutical Research, Vol. 24, No. 10, October 2007, p. 1969. […]

SMILES | Lower limit of quantitation (LLOQ) [ng/mL]
CNC1(c2ccccc2Cl)CCCCC1=O (racemic) [ketamine, reference compound] | 0.500
NC1(c2ccccc2Cl)CCCCC1=O (centres unmarked) [Norketamine] | 0.500
